Test results reported in patent US20060102935A1, “Transistor-based biosensors having gate electrodes coated with receptor molecules” (priority 2002, published 2006).
At least one structure is not confirmed: it was looked up by name or label, or the drawing left a doubt.

Sequences of proteins named here, by UniProt entry; tags and fusion partners are left off. Residues count along the entry.
UniProt O42275, 24-633: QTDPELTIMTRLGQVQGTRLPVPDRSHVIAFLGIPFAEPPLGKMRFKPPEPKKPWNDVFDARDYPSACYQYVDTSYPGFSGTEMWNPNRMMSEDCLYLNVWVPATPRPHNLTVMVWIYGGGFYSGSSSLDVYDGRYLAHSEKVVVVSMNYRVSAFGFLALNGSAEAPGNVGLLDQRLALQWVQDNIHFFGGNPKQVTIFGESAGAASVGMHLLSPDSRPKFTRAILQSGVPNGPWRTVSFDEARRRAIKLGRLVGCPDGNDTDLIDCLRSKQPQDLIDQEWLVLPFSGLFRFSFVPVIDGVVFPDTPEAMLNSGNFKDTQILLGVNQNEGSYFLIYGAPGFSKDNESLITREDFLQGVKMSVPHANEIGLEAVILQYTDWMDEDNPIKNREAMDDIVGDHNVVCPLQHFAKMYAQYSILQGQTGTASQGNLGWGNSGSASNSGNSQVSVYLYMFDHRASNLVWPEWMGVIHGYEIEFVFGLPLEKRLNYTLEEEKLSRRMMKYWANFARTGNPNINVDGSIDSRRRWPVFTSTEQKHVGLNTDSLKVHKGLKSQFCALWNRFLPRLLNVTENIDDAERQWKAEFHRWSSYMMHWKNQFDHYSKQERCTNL

Columns and labels:
[1] = molecular target: T1, acetylcholine esterase (AChE) (Electrophorus electricus, UniProt O42275); experiment: AChE-ISFET (AChE-FET) response to substrate and inhibitor in PBS; format: biochemical, electric eel
T1 construct: purchased Sigma C1682

[2] = molecular target: T1, acetylcholine esterase (AChE); experiment: ACh iontophoresis onto AChE-ISFETs; format: biochemical, electric eel; conditions: standard Ohm's-Law calculations

**Q.** Which “saturation of response of AChE-ISFET” value ([1]; 5 ml PBS, manual application (FIG. 5)) does the source give for `CC(=O)OCC[N+](C)(C)C` [Acetylcholine] here?
**A.** Its value is “approximately 0.05 M”.

**Q.** What about the “response plateau of modified ISFET” value ([1]; Ids, Vds 0.1V, Vgs 0.45V, PBS (Example 4)) of the same compound?
**A.** Its value is ~1 mM.

**Q.** And the “lowest concentration detectable by AChE-ISFET” value ([1]; PBS)?
**A.** The value was 10^−8 M.

**Q.** And the “response of AChE-ISFET on application to the solution” value ([1]; dissolved in PBS, in comparison to ACh)?
**A.** Its value is “full-scale response”.

**Q.** What about the “ISFET's peak sensitivity” value [2] of the same compound?
**A.** Its value is “approximately 20,000 Ach molecules”.
